Among the data in the supplement of paper PMC12819154, “High-throughput peptide-centric local stability assay extends protein–ligand identification to membrane proteins, tissues and bacteria” (Nature Structural & Molecular Biology, 2025) are log2 fold change values, retold here.

The chains behind the UniProt entries cited, without tags or fusion partners. Where a name states a change or a piece, a line headed by the entry shows the natural chain unless it says otherwise.
UniProt O60841: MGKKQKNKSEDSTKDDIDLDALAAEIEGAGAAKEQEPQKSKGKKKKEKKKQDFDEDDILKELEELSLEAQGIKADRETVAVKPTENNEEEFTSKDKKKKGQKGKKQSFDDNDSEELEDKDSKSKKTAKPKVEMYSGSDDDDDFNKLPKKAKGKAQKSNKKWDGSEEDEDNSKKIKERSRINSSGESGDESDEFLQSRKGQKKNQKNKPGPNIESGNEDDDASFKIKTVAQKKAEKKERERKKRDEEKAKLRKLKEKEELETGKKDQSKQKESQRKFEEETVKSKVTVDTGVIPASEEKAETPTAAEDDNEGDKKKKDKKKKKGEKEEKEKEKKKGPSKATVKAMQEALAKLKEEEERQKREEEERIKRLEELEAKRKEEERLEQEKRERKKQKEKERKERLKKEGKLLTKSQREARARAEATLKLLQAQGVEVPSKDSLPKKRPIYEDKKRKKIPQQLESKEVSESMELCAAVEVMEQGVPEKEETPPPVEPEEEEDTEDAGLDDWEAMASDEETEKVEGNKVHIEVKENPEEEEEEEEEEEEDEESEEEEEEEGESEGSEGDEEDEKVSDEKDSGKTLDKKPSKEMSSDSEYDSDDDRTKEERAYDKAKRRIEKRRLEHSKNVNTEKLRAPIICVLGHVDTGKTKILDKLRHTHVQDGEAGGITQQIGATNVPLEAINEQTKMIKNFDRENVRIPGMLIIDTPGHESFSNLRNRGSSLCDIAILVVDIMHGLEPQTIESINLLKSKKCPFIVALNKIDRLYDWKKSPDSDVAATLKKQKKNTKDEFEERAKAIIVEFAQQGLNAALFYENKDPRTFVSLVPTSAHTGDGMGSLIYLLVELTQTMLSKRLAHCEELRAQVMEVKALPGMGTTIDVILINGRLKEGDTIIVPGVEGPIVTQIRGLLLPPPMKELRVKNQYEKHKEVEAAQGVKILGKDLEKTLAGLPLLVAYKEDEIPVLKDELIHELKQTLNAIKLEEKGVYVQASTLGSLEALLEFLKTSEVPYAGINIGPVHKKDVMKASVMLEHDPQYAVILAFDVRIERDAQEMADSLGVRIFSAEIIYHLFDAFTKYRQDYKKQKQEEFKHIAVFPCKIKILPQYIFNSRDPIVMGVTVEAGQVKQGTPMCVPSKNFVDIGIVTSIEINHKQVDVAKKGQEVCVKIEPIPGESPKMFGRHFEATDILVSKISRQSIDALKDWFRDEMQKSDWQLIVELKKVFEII
UniProt O43760: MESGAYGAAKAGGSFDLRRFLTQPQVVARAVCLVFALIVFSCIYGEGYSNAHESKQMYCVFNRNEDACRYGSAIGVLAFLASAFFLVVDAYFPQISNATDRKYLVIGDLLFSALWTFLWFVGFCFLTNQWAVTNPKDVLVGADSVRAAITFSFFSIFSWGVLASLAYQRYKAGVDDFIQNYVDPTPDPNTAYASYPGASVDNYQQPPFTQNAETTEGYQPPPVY
UniProt O60925, whole entry: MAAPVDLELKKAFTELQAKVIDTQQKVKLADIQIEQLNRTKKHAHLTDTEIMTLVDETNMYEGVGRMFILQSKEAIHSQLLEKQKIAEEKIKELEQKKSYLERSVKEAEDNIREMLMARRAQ
UniProt O60927: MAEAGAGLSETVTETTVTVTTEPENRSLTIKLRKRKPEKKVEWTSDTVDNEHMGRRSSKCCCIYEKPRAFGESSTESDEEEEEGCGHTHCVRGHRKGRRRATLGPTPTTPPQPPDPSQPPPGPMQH
UniProt O43148, whole entry: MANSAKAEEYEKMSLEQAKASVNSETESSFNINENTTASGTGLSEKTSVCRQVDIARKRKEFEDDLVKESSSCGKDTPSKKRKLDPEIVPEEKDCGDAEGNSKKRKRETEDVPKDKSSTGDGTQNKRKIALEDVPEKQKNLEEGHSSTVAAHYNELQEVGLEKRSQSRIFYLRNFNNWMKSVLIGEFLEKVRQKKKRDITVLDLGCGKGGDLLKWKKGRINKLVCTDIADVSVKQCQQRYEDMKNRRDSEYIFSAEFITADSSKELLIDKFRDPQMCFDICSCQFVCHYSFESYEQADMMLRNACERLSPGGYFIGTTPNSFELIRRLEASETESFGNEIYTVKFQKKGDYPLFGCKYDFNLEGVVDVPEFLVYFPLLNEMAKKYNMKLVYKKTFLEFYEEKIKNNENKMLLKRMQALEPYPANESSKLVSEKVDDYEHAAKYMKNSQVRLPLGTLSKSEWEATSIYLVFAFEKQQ
UniProt O75369, whole entry: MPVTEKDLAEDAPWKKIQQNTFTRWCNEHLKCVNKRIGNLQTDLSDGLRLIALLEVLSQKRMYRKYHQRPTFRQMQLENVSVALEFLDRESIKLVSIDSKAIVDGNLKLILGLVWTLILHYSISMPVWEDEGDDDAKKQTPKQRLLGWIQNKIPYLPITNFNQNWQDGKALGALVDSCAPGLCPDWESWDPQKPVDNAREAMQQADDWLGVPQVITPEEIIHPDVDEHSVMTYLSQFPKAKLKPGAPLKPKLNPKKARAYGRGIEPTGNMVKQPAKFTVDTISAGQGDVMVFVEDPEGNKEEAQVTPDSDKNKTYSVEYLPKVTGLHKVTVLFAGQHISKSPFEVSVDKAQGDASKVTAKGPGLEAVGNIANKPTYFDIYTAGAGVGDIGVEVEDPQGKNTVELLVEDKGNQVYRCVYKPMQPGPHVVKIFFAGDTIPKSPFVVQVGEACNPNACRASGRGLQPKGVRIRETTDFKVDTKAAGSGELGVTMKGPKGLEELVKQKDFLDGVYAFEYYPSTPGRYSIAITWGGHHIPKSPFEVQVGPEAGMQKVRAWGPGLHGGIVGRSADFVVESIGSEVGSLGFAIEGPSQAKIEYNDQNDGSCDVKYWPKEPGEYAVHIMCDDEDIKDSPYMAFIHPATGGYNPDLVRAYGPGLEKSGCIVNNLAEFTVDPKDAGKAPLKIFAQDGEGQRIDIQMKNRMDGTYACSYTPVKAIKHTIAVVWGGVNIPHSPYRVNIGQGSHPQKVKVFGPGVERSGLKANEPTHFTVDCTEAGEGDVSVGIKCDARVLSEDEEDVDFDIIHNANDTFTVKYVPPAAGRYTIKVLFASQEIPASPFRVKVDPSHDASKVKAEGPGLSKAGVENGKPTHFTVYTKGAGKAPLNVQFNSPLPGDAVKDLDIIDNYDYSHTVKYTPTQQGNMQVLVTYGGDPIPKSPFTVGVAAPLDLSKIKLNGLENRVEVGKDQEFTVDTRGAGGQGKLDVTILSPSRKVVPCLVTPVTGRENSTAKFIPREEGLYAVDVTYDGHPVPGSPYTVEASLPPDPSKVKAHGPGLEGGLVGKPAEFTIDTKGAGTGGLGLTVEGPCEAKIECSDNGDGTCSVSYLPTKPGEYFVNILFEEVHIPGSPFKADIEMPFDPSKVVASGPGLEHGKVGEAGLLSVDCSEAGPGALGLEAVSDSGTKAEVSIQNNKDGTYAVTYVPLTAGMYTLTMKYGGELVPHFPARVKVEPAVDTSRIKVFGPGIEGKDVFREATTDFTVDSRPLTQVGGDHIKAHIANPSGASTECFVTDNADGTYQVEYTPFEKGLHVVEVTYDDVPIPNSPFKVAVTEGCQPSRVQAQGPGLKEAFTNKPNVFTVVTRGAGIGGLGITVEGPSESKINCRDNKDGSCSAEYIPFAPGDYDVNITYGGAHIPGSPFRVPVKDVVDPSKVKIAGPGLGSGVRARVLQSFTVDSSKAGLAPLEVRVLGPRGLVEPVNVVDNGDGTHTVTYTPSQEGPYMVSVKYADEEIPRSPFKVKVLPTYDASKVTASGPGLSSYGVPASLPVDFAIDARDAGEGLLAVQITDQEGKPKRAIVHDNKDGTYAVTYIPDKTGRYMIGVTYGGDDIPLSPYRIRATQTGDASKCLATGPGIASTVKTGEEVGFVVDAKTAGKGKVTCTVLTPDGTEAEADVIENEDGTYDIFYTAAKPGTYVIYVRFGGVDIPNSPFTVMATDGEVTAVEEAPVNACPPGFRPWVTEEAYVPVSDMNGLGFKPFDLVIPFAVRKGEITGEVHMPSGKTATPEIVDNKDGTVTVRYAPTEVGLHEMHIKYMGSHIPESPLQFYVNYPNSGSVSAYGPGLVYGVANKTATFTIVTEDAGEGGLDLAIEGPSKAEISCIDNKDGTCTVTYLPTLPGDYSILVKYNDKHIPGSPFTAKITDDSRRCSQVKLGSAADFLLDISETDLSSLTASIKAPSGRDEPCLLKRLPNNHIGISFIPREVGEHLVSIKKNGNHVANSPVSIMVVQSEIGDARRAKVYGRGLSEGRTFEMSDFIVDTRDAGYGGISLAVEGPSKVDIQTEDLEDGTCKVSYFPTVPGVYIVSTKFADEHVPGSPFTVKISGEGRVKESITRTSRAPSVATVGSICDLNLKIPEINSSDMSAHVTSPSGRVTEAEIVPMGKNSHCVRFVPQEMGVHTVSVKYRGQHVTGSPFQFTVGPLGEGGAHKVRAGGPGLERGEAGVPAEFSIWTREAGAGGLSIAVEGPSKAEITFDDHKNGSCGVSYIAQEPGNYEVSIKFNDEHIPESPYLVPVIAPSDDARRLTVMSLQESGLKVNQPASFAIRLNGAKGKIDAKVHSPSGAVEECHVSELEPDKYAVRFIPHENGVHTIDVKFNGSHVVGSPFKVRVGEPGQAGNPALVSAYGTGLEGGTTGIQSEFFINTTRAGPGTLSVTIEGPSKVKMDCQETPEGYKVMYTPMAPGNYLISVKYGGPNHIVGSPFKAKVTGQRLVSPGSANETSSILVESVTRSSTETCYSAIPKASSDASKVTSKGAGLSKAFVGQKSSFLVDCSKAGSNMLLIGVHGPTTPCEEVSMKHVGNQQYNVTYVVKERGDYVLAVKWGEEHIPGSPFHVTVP
UniProt O60292, whole entry: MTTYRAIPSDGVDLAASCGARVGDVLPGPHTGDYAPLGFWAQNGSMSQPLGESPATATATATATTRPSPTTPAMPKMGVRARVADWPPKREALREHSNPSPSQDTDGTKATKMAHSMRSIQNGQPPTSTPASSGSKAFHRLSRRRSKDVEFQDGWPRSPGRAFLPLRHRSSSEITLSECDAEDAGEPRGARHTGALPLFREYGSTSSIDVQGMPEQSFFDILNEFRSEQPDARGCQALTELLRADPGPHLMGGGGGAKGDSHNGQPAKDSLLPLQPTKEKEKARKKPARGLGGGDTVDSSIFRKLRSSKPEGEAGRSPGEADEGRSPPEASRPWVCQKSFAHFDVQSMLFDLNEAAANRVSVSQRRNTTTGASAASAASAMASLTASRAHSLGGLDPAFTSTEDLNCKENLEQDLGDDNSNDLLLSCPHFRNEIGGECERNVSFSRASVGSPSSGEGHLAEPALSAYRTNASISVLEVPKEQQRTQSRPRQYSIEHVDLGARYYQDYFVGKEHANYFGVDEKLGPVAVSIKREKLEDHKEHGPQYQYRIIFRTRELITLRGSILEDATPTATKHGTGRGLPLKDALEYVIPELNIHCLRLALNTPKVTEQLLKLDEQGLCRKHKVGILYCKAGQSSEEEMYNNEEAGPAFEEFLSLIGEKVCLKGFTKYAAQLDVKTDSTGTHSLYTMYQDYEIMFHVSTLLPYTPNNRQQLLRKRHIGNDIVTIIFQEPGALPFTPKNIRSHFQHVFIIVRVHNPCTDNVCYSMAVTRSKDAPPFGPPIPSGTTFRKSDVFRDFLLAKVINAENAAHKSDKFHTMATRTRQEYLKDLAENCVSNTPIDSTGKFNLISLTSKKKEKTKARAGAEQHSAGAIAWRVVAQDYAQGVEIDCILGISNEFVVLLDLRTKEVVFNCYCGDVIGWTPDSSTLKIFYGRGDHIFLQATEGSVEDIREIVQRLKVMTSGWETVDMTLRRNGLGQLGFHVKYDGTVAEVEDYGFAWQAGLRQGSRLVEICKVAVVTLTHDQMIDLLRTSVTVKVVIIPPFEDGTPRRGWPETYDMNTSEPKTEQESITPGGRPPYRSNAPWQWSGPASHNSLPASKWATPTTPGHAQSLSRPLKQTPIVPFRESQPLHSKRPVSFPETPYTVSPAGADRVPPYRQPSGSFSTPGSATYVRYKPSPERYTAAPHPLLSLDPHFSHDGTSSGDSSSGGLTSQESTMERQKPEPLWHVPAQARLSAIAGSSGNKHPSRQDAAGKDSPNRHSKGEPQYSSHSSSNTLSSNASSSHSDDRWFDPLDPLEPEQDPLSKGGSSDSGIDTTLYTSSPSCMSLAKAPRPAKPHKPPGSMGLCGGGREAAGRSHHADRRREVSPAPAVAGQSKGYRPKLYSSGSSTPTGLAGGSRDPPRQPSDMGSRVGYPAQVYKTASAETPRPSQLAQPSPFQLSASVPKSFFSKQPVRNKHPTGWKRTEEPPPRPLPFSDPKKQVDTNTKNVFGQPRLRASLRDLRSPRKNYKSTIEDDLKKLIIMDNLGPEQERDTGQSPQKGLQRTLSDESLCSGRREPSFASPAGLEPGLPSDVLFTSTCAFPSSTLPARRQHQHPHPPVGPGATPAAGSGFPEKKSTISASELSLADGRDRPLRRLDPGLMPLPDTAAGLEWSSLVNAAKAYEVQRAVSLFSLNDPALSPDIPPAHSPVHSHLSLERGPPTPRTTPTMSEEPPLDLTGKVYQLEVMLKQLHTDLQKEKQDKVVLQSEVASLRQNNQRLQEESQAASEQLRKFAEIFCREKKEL

The other results are listed elsewhere or left out. Most entries show no effect beyond the scatter of the controls.

Compound in the assay: CN[C@@H]1C[C@H]2O[C@@](C)([C@@H]1OC)n1c3ccccc3c3c4c(c5c6ccccc6n2c5c31)C(=O)NC4 [staurosporine]
Put plainly: log2 fold change of tryptic peptide abundance, ligand vs vehicle (limited proteolysis) (log2 ratio); higher = more trypsin-susceptible (destabilized). The settings on record: ligand concentration: 20 uM; sample: K562 cleared lysate; digestion: 4 min, 22 C (HT-PELSA RT4min, Orbitrap Astral).
Regarding “USO1 (peptide sequence: VASSTLLDDRR, peptide start residue: 30) (UniProt O60763)”, the log2 fold change was -0.745. In the case of “UniProt O43504 (peptide sequence: HDGITVAVHK, peptide start residue: 79)” it was 0.16; in that of “EIF5B (peptide sequence: LRAPIICVLGHVDTGK, peptide start residue: 629) (UniProt O60841)”, 0.191.

With “EVI5 (peptide sequence: EMEEQVEIKR, peptide start residue: 422) (UniProt O60447)”, the log2 fold change was -0.512.

Consider “SYNGR2 (peptide sequence: MESGAYGAAK, peptide start residue: 1) (UniProt O43760)”, for which the log2 fold change is -0.023. With “PFDN1 (peptide sequence: SVKEAEDNIREMLMAR, peptide start residue: 104) (UniProt O60925)” the figure was 0.286; with “PPP1R11 (peptide sequence: ATLGPTPTTPPQPPDPSQPPPGPMQH, peptide start residue: 101) (UniProt O60927)”, -0.227; with “RNMT (peptide sequence: RDITVLDLGCGK, peptide start residue: 197) (UniProt O43148)”, 1.04. With “FLNB (peptide sequence: EAGAGGLSIAVEGPSKAEITFDDHK, peptide start residue: 2220) (UniProt O75369)” the figure was -0.569. With “UniProt O60292 (peptide sequence: GCQALTELLR, peptide start residue: 234)” the figure was -0.336.
